{"source": "patent US20080200480A1", "about": "(priority 2005, published 2008)", "tested_on": "Phytophthora infestans", "type": "in vivo, Phytophthora infestans on tomato plants", "settings": "250 ppm, sprayed to runoff, infected after 3 days, assessed visually after 6 days; untreated plants 90% infected", "note": "Some of these results come from one statement about several compounds together."}
{"smiles": "CCc1ccc(-n2c(CC)nc3nnnc-3c2N)cc1", "note": "[I-5, 5-ethyl-6-(p-ethylphenyl)-7-aminotriazolopyrimidine]", "values": [{"measurement": "infection", "value": "at most 10%"}]}
